Test results taken from PubChem BioAssay AID662 (National Center for Advancing Translational Sciences (NCATS), 2007).
Where “and” joins values, the source holds several entries; their conditions need not be identical. Identical values can stand only once. The list shows a part of the results. These are further read-outs of the screen, such as a control signal, another cell line or another target. No call is given for them. Most of these compounds were active or inconclusive in the main read-out, so they are no random draw. Potencies come from curve fits of mixed quality, noted in brackets.

Experiment: Cell signaling CRE-BLA (Fsk stim)
Settings: CHO CRE-bla reporter (cAMP response element driving beta-lactamase), forskolin EC10, beta-lactamase ratio; measured here: 460 nm blue channel
Method in brief: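 AC50 values, positive or negative, reflect shifts in EC10 NKH 477-induced CRE-bla reporter activity in CHO cells. Incubation lasted 3 h at 37 °C before CCF4 substrate (2 h, room temperature) and ratiometric 460/530 nm reading.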

SMILES	AC50
COc1ccc2c(Cl)c(-c3nnc4n3CCCCC4)sc2c1	0.501 µM [falling, full curve]
O=C(CCN1CCC(c2ccccc2)C1)c1cccs1 (centres undefined)	12.6 µM [falling, single point]
O=C(Nc1ccc(OC(=O)c2ccncc2)cc1)c1ccncc1	0.0316 µM [falling, partial curve]
Cn1c(=O)c(-c2cc(F)cc(F)c2)nc2cncnc21	12.6 µM [rising, partial curve]
CCCCCCCNS(=O)(=O)c1cccc2c(Cl)cccc12	31.6 µM [falling, single point]
CC1(C)OC(=O)C(=CNc2ncccn2)C(=O)O1	0.0158 µM [falling, full curve]
O=C(Nc1ccc(N2CCN(C(=O)c3ccccc3)CC2)c(Cl)c1)c1ccco1	25.1 µM [falling, single point]
Nc1nc2ccccc2n1/N=C/c1ccc(-c2ccccc2)o1	0.2 µM [falling, full curve]
CN(C(=O)c1ccc2c(c1)OCO2)C1(C(=O)NC2CCCCC2)CCCCC1	10 µM [rising, single point]
CC(=NC1CCCCC1)C1=C(O)c2ccccc2C1=O	15.8 µM [rising, single point]
Cc1ccc2[nH]c(C)c(CN(C)C3CCN(C)CC3)c(=O)c2c1	0.398 µM [falling, full curve, poor fit]
O=C(Cn1cnc2c(nnn2Cc2ccc(F)cc2)c1=O)N1CCCc2ccccc21	0.0794 µM [falling, single point]
CCSc1nc2c(c(=O)[nH]1)C(c1ccncc1)C(C(=O)OC(C)C)=C(C)N2 (centres undefined)	25.1 µM [rising, single point]
COc1ccccc1C(=O)Nc1ccc(S(=O)(=O)Nc2cc(C)on2)cc1	10 µM [rising, single point]
CC(C)CCn1cnc2c(cnn2-c2ccc(F)cc2)c1=O	10 µM [rising, single point]
CC12CN3CCN(CC(C3)C1(O)CN1CCOCC1)C2 (centres undefined)	0.398 µM [rising, partial curve]
CS(=O)(=O)N1CCN(c2nnc(-c3ccccc3)c3ccccc23)CC1	0.316 µM [rising, full curve, poor fit]
Cc1ccc2c(Cl)cc(Cl)c(OCc3c(C)noc3C)c2n1	1 µM [falling, single point]
Cc1ccc2[nH]c(=O)c(CN(Cc3ccco3)S(=O)(=O)c3c(C)ccc4nsnc34)cc2c1	25.1 µM [falling, single point]
O=C(C1CCN(S(=O)(=O)c2cccnc2)CC1)N1CCN(c2ccccc2Cl)CC1	0.398 µM [falling, full curve]
CCCCCC(=O)O[C@H](CC(=O)O)C[N+](C)(C)C	31.6 µM [falling, single point]
N[C@@H](COP(=O)(O)O)C(=O)O	25.1 µM [falling, single point]
CCOC(=O)c1cnn2c(C(F)F)cc(C3CC3)nc12	7.94 µM [rising, partial curve]

SMILES	AC50
O=C(O)Cc1coc(-c2ccc(F)cc2)n1	0.00631 µM [falling, full curve, poor fit]
CCc1nnc(NC(=O)CSc2nc3c(c(=O)n2C)SC(C)C3)s1 (centres undefined)	2.51 µM [rising, full curve]
CCCn1c(=NC(C)=O)c(C(=O)OCC)cc2c(=O)n3ccccc3nc21	10 µM [rising, partial curve]
Fc1ccc(Nc2nc(-c3cccnc3)nc3ccccc23)cc1	10 µM [rising, partial curve]
CCC(CC)n1[nH]c(=O)c2c(C)cc(C)nc21	10 µM [rising, single point]
COc1cccc(OC)c1C(=O)Nc1cc(Cl)ccc1N1CCOCC1	0.794 µM [rising, full curve, poor fit]
Cc1ccc2nc(-c3ccc(N)cc3)sc2c1S(=O)(=O)O	25.1 µM [rising, partial curve]
CC1(C)Cc2ccccc2-c2nc(NCCCO)n(-c3ccccc3)c(=O)c21	2.51 µM [rising, partial curve]
CC(C)NC(=O)CSCc1ccccc1Cl	0.00316 µM [falling, full curve, poor fit]
CCOC(=O)C1=C(C)NC(=O)NC1c1cccnc1 (centres undefined)	0.00316 µM [falling, full curve, poor fit]
COc1ccc(C2N=C(c3ccccc3)C(C)(C)N2O)cc1OC (centres undefined)	1.58 µM [falling, partial curve]
CCNc1ncc2nc(C)c(=O)n(C)c2n1	10 µM [rising, partial curve]
Cc1nc(N2CCN(C(=O)c3ccco3)CC2)c2oc3ccccc3c2n1	2 µM [rising, full curve]
COC(=O)Nc1c(-c2ccccc2)nc2ccccn12	0.01 µM [falling, full curve]
O=C(Nc1ccc([N+](=O)[O-])cc1Cl)c1cc(Cl)ccc1O	1 µM [falling, full curve] and 501 nM [falling, full curve, poor fit]
COc1ccccc1NC(=O)CSc1nc2nc(C)cc(C)c2c(=O)[nH]1	10 µM [rising, partial curve]
Cn1cccc1C(=O)N1CCC2(CCCN(Cc3ccccc3)C2)CC1	5.01 µM [falling, single point]
CCOc1ccc(Cc2nccc3cc(OCC)c(OCC)cc23)cc1OCC	1.26 µM [rising, full curve]
Cc1ccc(-c2cc(C(F)(F)F)c(C#N)c(SCCC#N)n2)o1	3.16 µM [rising, partial curve]
Cc1oc2nc(SCC(=O)N3CCCCC3)nc(N)c2c1C	3.98 µM [rising, full curve]
Cc1ccccc1-n1c(SCC(=O)c2cc(C)n(C)c2C)nnc1-c1ccncc1	12.6 µM [rising, partial curve, poor fit]
CC1(C)CC(=O)C(C=NCC2CCCO2)=C(O)C1 (centres undefined)	0.794 µM [rising, full curve]
Cn1c(COc2ccccc2)nnc1SCC(=O)Nc1ccc(N2CCOCC2)c(Cl)c1	25.1 µM [rising, partial curve, poor fit]

SMILES	AC50
O=C(CCCSc1nc2ccccc2s1)Nc1nccs1	5.01 µM [falling, single point]
COc1cccc(-c2cc(NCc3cccc(C)c3)ncn2)c1	2.51 µM [rising, full curve]
CCOC(=O)C1CCN(C(=O)CSc2n[nH]c(=O)[nH]c2=O)CC1	3.98 µM [falling, partial curve]
O=C(O)c1ccc(CSc2nnc(COc3ccc(Cl)cc3Cl)o2)cc1	15.8 µM [rising, single point]
COc1cccc(Cn2c(=O)c(-c3cccc(C#N)c3)nc3cnc(Nc4ccccc4)nc32)c1	1.58 µM [rising, partial curve]
CC(=O)Cc1nsc(NC(=O)c2ccc(-c3cccc(C(F)(F)F)c3)o2)n1	2.51 µM [falling, full curve]
Cc1ccc2cccc(O)c2[n+]1[O-]	0.00398 µM [falling, full curve, poor fit]
CCc1nnc(NC(=O)CSc2nc(-c3ccc(OC)cc3)ns2)s1	0.00398 µM [falling, full curve, poor fit]
Cc1cnc(CNc2ccnc(-c3cccc(NS(C)(=O)=O)c3)n2)cn1	5.01 µM [rising, full curve]
CC(=O)Nc1nn(C)c2nc3cc(C)ccc3cc12	15.8 µM [rising, partial curve]
Cc1nc2nc3c(c(=O)n2[nH]1)CCC3	5.01 µM [rising, single point]
O=c1c2c(-c3ccco3)csc2nc(SCc2cn3cccnc3n2)n1-c1ccccc1	1 µM [rising, partial curve]
COc1ccc(-c2nc3cnc(N4CCN(C)CC4)nc3n(Cc3ccc(F)cc3)c2=O)cc1	2.51 µM [rising, partial curve]
Cc1ccccc1-c1nc(N2CCOCC2)c2ccccc2n1	5.01 µM [rising, full curve]
COc1cccc(-c2nn(C)c3sc(C(=O)NCc4ccc(C)o4)cc23)c1	7.94 µM [rising, partial curve]
CCc1nnc(NC(=O)CSc2nnc(-c3ccccc3NC(=O)c3ccccc3)o2)s1	25.1 µM [falling, single point]
O=C(CC(C(=O)N1CCc2ccccc21)n1ccnc1)NCC1CCCO1 (centres undefined)	5.01 µM [falling, partial curve]
O=S(=O)(c1ccccc1)c1nc(-c2ccco2)oc1N1CCOCC1	0.1 µM [rising, single point]
CCn1cc(C(=O)NCc2ccco2)c(=O)c2cc(S(=O)(=O)N3CCCCCC3)ccc21	15.8 µM [rising, partial curve]
CCC/C(O)=C1\C(=O)CC(C)(C)CC1=NCCO	12.6 µM [rising, single point]
CN(C)S(=O)(=O)N1CCC(c2ccc(F)cc2)C(COc2ccc3c(c2)OCO3)C1 (centres undefined)	15.8 µM [falling, partial curve]
COc1ccccc1NC(=O)Cc1nn(C)c(=O)c2ccccc12	0.00398 µM [falling, full curve, poor fit]
COc1ccc(-c2nnc3ccc(SCC(=O)N4CCCCCC4)nn23)cc1OC	7.94 µM [rising, partial curve]
